In this experiment the target is T1, Androgen receptor (Homo sapiens, UniProt P10275).
T1 sequence (P10275 whole entry): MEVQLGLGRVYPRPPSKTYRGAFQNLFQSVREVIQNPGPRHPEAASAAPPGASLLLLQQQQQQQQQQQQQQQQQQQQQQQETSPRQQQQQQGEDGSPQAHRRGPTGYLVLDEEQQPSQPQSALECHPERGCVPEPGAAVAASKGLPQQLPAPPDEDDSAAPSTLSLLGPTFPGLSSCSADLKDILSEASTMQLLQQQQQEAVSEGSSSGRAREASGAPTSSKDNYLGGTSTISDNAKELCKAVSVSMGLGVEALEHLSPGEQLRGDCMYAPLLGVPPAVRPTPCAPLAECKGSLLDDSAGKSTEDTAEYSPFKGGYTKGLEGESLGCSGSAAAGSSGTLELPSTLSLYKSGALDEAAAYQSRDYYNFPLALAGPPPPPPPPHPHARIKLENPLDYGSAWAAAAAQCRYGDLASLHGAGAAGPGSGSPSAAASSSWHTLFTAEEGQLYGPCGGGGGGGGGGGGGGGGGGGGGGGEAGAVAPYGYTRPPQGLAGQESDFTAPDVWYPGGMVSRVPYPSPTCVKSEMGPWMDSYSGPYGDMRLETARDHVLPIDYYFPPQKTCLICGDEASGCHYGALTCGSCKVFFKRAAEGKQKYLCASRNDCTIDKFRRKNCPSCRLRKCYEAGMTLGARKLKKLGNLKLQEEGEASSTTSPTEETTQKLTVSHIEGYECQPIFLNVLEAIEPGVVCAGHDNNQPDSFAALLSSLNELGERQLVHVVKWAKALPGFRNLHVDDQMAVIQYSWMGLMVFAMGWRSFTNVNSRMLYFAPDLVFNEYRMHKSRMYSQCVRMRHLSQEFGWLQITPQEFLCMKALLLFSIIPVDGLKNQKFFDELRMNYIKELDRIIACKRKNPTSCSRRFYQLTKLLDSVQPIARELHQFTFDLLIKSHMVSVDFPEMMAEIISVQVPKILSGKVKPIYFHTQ

Usually Ki stands for a measure of affinity in units of concentration, obtained from inhibition or displacement. Read a low Ki as a stronger hold on the target.

`CC(=O)Nc1ccc(N2C(=S)N(c3ccc(C#N)c(C(F)(F)F)c3)C(=O)C23CCC3)cc1F`: the Ki turned out to be 1450 nM.

Source of the values: ChEMBL document CHEMBL5728042, “Selective androgen receptor degrader (SARD) ligands and methods of use thereof” (2020).
